From patent US20130039916A1 come the findings set out here.

The chains behind the UniProt entries cited, without tags or fusion partners. Where a name states a change or a piece, a line headed by the entry shows the natural chain unless it says otherwise.
UniProt P29460: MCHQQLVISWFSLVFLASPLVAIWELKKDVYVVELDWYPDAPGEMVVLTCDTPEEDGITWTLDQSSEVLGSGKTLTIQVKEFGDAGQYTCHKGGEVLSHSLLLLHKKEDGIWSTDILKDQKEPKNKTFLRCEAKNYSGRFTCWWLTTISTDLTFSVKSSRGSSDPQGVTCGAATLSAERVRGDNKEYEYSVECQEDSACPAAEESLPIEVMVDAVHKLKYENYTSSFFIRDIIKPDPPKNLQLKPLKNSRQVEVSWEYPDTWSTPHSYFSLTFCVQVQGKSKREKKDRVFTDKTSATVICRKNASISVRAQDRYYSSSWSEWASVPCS

Results are given in words; binding and its absence hold for the method and conditions named. Some results given as binding are weak or reduced against the parent protein; the word gives no strength.

This assay deals with non-linked human IL-23 (p19 and p40 subunits) with the N222Q variant of p40, as used for the crystal structure (human) (UniProt P29460). Briefly: X-ray crystallography of the complex.

B1: Fab fragment of the chimeric form of antibody 7G10 (Fab, V domains shown)
VH: EVQLQQSGPELVKPGASVKMSCKASGYTFTSNVMHWVKQKPGQGLEWIGYINPYNDGTKYNEKFKGKATLTSDKSSSTAYMELSSLTSEDSAVYYCARNWDVAYWGQGTLVTVSA
VL: DIVMTQSPATLSVTPGDRVSLSCRASQSISDYLHWYRQKSHESPRLLIKYASQSISGIPSRFSGSGSGSDFTLSINSVEPEDVGVYYCQNGHSFPFTFGSGTKLEIKR
For B1, the binding result is on record as “binds”.
